Drawing on PubChem BioAssay AID493014 (National Center for Advancing Translational Sciences (NCATS), 2011), this text covers AC50 for 41 compounds.

This assay can be described thus: qHTS Assay to Find Inhibitors of Chronic Active B-Cell Receptor Signaling. The following applies: ABC-DLBCL IkBa-CBG/CBR reporter, luminescence ratio (green luciferase fused to IkBa over red control in TMD8 lymphoma cells), 4 h. In a few lines:
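Cell line TMD8 (human ABC DLBCL), stably expressing tet-inducible CBG68-IkBa fusion and CBR; IMDM/0.5% FBS; cpd up to 46 uM; dox induction, 4 h, 37C/5% CO2; dual luminescence; green/red ratio; MG132 control.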

[1] abbreviates: measured here: CBR red luminescence, cell number.
[2] abbreviates: measured here: IkBa-CBG green luminescence.

Molecules are shown by their SMILES. The list shows a part of the results. These are further read-outs of the screen, such as a control signal, another cell line or another target. No call is given for them. The list favours compounds with an active or inconclusive main result. The note in brackets gives the kind of curve behind each potency; many fits are weak.

Regarding `COc1cc(C(F)(F)F)nc2c(Br)c(C(C)(C)C)nn12`, the AC50 under setting [1] was 0.1 µM [rising, full curve, poor fit]. Regarding `Clc1ccc(-c2noc(CCCc3ccccc3)n2)cc1`, the AC50 under setting [1] is 13 µM [rising, partial curve, poor fit]. Still for that read-out and setting: under `Cc1cc(C)cc(N=Cc2c(O)c3ccccc3oc2=O)c1` stands 3.98 µM [falling, full curve, poor fit]. For the compound `CCOC(=O)c1ccc(Nc2nn3c(=O)c4ccccc4nc3s2)cc1`, the AC50 runs as follows: under setting [1], 0.562 µM [falling, full curve]; under setting [2], 0.316 µM [rising, full curve, poor fit]. Take `Cn1nnnc1Sc1ncnc2scc(-c3ccsc3)c12`: the AC50 under setting [1] was 10.3 µM [falling, single point]. The same measure, in the same setting: under `COc1ccc(N2CCC(CNC(=O)Nc3ccc(C)c(C)c3)C2)cc1` (stereo not drawn) stands 16.4 µM [rising, partial curve]. On to `O=C(Nc1ccc(F)cc1)c1nc[nH]c1C(=O)O`, for which the AC50 under setting [1] was 35.5 µM [falling, single point]. As to `c1ccc(CSc2nnc(-c3ccco3)c(-c3ccco3)n2)cc1`, the AC50 under setting [1] was 2.06 µM [falling, partial curve, poor fit]. Same read-out and setting: under `O=C(Nc1ccc2c(c1)OCCO2)C1CCCN(S(=O)(=O)c2cnc[nH]2)C1` (stereo not drawn) stands 18.4 µM [falling, single point]; under `Cn1c(=O)oc2cc(S(=O)(=O)Nc3ccc(F)cc3)ccc21`, 5.01 µM [falling, partial curve]. The same measure, in the same setting: under `O=C(CCc1nc2ccccc2[nH]1)Nc1ccccc1` stands 32.6 µM [falling, partial curve, poor fit]; under `CCCCCCCCCCCCCCCC[n+]1cccc2ccccc21`, 25.9 µM [falling, single point]; under `COCC(=O)Nc1nnc(Cc2ccc(OC)c(OC)c2)s1`, 0.794 µM [falling, full curve]. Still for that read-out and setting: under `COc1ccc(Cl)cc1NC(=S)NCc1cccs1` stands 22.4 µM [falling, single point]; under `CCOC(=O)C1CCN(S(=O)(=O)c2c(C)n[nH]c2C)CC1`, 29.1 µM [rising, single point]; under `Clc1ccc(/C=C\c2nccc3c2[nH]c2ccccc23)cc1`, 35.5 µM [rising, single point]. Consider `COc1cc(OC)c(OC)cc1CNc1cc(C)ccc1OC`, for which the AC50 under setting [1] was 35.5 µM [falling, single point]. Still for that read-out and setting: under `CC(C)C(=O)N1N=C2CCCCC2C1(O)C(F)(F)F` (stereo not drawn) stands 2.82 µM [rising, partial curve, poor fit]; under `CC1=C[C@H]2OC(=O)[C@@H](C)[C@H]2C[C@@H]2[C@H]1C[C@@H](O)[C@@]2(C)O`, 0.631 µM [rising, full curve, poor fit]. On to `Cc1nc2ccc(NC(=O)Cc3ccccc3F)cc2s1`, for which the AC50 under setting [1] was 14.1 µM [falling, single point].

On to `Cc1c(CCC(=O)O)c(=O)oc2cc3occ(-c4ccc(Cl)cc4)c3cc12`, for which, under setting [1], the AC50 is 10 µM [rising, partial curve, poor fit]. Still for that read-out and setting: under `O=c1[nH]c(=S)[nH]c2nc(-c3cccs3)cc(C(F)(F)F)c12` stands 8.91 µM [falling, partial curve, poor fit]; under `CN(C)S(=O)(=O)c1ccc(-n2cccc2)cc1`, 12.6 µM [rising, partial curve, poor fit]. Regarding `CCOc1ccc(N(C)S(=O)(=O)c2ccc(-c3cc(C)no3)s2)cc1`, under setting [2], the AC50 was 35.5 µM [falling, single point]. With `Cc1ccc(NC(=O)Nc2cccc(C(F)(F)F)c2)nc1`, under setting [1], the AC50 is 1 µM [rising, full curve, poor fit]. Same read-out and setting: under `CCOC(=O)c1c(-c2cccs2)csc1NC(=O)C(C)(C)C` stands 7.31 µM [rising, partial curve]. As to `Cc1cc(C(=O)N2CCc3c([nH]c4ccccc34)C2c2cccc(Cl)c2)nn1C` (stereo not drawn), the AC50 under setting [1] was 35.5 µM [falling, single point]. Still for that read-out and setting: under `CCOC(=O)c1cc2sccc2n1CC(=O)N1CCCC1` stands 12.6 µM [rising, partial curve, poor fit]; under `Cc1ccc(S(=O)(=O)CNC(=O)c2ccccc2)cc1`, 14.1 µM [rising, partial curve, poor fit]. For the compound `COCCNC(=S)N/N=C(\C)c1ccc(Cl)c(Cl)c1Cl`, the AC50 is 35.5 µM [falling, single point] under setting [1] and 15.8 µM [falling, partial curve] under setting [2]. Take `COc1nc(N(CC(N)=O)S(=O)(=O)c2ccccc2)nc(C)c1Cl`: under setting [1], the AC50 is 25.9 µM [falling, partial curve, poor fit]. Same read-out and setting: under `O=C1C2CC=CCC2C(=O)N1c1n[nH]c(-c2ccccc2)n1` (stereo not drawn) stands 9.2 µM [falling, partial curve, poor fit].

For the compound `COc1ccc(CCN2Cc3c(cccc3[N+](=O)[O-])C2=O)cc1OC`, under setting [1], the AC50 was 28.2 µM [rising, single point]. Regarding `COc1ccccc1NC(=O)c1ccc(NS(C)(=O)=O)cc1`, the AC50 under setting [1] was 4.61 µM [rising, partial curve, poor fit]. On to `COc1ccc(OC)c(NC(=O)C2CCCN2C(=O)OCc2ccccc2)c1` (stereo not drawn), for which the AC50 under setting [1] was 9.2 µM [falling, partial curve, poor fit].

Take `Cc1nn(-c2ccccc2)c(N)c1Sc1ccc([N+](=O)[O-])cc1`: under setting [1], the AC50 was 29.1 µM [falling, single point].

As to `Cc1noc(NS(=O)(=O)c2ccc(NC(=O)CSc3nc4c(cc3C#N)CCCCC4)cc2)c1C`, the AC50 under setting [1] is 2.91 µM [falling, full curve, poor fit].

On to `O=C(NCc1ccco1)c1ccc2c(=O)n(Cc3ccco3)c(SCC(=O)N3CCCC3)nc2c1`, for which the AC50 under setting [1] is 3.55 µM [falling, partial curve, poor fit]. Still for that read-out and setting: under `Cc1ccc(NC(=O)C2(c3ccccc3)CCOCC2)cc1` stands 7.94 µM [rising, partial curve, poor fit]; under `Cc1cc(NC(=O)CSC2=NS(=O)(=O)c3cc(Cl)ccc3N2)no1`, 29.1 µM [falling, single point]. On the same count and under the same terms, under `CC(C)=NNc1nc(-c2ccccc2)c(C)s1` stands 22.4 µM [falling, single point].

Usually AC50 stands for the concentration giving half of the maximal activity seen.
